Assay results reported in the supplement of paper PMC10849652.
This is one part of the list.

Sequences of proteins named here, by UniProt entry; tags and fusion partners are left off. A change or cut given only in a name is not applied to a line headed by its entry.
UniProt Q9NQC3: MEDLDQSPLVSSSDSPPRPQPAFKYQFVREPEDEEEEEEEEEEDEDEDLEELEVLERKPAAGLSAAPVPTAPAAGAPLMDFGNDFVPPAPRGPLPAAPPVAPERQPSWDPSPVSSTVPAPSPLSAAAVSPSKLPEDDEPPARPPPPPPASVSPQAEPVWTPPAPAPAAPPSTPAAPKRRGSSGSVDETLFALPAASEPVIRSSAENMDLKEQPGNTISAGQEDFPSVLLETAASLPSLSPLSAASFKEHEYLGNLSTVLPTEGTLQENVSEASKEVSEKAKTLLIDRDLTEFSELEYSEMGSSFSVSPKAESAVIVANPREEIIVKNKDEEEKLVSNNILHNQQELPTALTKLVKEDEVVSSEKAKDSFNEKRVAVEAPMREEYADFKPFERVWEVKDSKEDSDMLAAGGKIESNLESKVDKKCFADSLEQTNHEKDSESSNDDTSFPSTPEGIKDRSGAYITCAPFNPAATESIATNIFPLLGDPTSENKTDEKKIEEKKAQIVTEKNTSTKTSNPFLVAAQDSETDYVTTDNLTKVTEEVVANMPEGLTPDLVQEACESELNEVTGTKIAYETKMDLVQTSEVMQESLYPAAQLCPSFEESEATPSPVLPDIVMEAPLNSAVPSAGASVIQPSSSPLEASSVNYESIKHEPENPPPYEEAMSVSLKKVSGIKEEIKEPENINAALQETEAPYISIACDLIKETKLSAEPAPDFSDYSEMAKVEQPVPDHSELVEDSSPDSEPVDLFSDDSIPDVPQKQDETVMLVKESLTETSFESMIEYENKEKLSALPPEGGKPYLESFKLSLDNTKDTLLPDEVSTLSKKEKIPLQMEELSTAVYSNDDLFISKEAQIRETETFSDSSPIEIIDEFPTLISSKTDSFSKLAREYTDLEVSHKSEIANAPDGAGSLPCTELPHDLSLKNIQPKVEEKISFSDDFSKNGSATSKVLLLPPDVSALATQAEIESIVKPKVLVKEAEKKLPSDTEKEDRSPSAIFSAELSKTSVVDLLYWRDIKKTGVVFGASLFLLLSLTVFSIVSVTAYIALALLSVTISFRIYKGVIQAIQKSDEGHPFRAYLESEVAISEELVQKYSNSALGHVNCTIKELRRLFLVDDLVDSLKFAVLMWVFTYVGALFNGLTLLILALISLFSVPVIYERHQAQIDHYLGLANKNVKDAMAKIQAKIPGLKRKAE
UniProt P05386, whole entry, looked up: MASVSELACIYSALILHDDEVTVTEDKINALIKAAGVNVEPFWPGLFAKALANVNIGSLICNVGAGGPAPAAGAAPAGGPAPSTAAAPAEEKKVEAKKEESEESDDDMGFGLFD
UniProt Q9Y3B9: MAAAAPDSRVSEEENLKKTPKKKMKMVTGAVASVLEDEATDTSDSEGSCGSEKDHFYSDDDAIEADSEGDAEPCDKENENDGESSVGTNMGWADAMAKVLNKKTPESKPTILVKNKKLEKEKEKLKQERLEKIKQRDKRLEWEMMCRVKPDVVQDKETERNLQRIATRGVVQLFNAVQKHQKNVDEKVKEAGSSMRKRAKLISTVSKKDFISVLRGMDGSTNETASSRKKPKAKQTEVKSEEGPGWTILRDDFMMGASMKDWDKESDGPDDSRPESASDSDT
UniProt P78346: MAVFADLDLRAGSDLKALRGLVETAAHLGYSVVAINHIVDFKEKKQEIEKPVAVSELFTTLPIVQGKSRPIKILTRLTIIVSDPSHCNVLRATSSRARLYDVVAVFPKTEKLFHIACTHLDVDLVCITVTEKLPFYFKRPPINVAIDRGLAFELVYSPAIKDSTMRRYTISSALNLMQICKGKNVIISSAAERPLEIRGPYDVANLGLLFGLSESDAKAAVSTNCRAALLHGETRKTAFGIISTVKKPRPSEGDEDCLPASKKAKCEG
UniProt Q8WWV3: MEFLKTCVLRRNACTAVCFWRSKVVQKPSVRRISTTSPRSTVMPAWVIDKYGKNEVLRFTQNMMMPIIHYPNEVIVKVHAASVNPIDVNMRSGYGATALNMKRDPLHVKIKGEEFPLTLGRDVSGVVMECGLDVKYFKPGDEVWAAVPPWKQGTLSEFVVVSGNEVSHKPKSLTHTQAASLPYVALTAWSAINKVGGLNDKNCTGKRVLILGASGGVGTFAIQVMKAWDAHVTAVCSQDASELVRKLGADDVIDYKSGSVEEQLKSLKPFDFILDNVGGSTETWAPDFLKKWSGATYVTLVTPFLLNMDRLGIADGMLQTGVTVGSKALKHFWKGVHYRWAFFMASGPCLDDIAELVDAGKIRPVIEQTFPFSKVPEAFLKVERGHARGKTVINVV
UniProt P23443: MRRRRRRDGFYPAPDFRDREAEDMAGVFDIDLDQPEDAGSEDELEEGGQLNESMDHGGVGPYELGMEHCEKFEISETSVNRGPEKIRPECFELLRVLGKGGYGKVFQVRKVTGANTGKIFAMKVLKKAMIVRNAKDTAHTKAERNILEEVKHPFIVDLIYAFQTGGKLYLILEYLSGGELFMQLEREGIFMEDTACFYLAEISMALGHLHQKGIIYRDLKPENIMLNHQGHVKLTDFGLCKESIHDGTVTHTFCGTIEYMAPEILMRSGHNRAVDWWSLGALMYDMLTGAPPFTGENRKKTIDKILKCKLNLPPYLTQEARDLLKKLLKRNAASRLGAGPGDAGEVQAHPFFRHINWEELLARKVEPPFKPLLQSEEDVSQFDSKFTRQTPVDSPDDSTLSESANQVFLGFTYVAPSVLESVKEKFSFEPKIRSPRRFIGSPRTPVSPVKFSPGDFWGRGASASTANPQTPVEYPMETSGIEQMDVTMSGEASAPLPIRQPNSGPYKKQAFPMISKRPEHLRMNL
UniProt Q9BUL9: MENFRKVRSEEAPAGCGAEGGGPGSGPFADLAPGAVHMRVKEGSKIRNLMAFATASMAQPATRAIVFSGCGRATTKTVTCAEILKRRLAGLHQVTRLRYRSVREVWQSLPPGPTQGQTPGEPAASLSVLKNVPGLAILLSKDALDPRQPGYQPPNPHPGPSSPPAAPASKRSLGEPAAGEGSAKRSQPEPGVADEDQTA
UniProt P04844: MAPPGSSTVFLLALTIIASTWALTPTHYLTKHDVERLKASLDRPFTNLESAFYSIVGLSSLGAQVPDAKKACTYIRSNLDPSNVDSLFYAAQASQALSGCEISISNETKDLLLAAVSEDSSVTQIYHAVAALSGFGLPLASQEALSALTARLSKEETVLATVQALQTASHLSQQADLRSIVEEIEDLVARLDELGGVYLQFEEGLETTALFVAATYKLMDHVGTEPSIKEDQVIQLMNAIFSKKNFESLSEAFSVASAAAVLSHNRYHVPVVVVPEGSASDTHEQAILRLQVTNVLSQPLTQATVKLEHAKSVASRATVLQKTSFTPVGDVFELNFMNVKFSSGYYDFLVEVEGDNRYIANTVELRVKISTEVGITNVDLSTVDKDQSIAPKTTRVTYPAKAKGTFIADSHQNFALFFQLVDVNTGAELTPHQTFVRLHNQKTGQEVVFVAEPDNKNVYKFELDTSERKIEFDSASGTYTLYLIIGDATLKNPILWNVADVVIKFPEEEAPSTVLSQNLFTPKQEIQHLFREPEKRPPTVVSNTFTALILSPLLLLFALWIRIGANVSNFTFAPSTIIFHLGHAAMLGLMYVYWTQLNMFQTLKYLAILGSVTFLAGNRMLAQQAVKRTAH
UniProt Q9Y3I0: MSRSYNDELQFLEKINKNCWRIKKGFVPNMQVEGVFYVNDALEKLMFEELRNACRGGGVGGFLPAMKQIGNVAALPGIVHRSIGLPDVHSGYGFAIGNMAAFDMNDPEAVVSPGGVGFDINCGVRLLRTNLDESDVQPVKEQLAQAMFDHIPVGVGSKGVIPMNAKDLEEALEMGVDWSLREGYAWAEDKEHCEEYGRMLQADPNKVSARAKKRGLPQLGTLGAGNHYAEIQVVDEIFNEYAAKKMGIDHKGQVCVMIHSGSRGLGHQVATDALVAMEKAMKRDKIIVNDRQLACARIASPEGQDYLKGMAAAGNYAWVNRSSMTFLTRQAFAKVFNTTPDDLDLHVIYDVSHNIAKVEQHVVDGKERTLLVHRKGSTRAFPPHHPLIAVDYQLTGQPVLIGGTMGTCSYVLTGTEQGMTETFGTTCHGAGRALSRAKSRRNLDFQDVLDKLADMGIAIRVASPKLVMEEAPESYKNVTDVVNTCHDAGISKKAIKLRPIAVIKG
UniProt Q7L523, whole entry, looked up: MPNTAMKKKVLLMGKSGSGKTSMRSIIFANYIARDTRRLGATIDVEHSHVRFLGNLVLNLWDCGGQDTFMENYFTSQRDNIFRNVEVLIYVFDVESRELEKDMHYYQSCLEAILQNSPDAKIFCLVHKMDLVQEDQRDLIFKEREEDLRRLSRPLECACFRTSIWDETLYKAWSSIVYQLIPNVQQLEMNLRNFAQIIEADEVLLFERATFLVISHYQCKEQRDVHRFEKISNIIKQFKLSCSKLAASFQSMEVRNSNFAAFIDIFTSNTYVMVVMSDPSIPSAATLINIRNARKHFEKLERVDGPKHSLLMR
UniProt A6ZKI3: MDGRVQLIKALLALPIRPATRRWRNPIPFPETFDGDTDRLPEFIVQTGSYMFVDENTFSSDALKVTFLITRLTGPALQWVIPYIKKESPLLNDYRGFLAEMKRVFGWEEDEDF
UniProt Q8N488: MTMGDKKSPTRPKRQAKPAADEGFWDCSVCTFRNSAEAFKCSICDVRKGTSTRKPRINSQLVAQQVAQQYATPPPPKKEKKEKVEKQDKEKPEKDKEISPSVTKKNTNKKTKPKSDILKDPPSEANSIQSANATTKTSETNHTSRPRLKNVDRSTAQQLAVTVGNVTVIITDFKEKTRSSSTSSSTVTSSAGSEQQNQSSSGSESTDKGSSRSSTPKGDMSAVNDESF
UniProt Q6P087: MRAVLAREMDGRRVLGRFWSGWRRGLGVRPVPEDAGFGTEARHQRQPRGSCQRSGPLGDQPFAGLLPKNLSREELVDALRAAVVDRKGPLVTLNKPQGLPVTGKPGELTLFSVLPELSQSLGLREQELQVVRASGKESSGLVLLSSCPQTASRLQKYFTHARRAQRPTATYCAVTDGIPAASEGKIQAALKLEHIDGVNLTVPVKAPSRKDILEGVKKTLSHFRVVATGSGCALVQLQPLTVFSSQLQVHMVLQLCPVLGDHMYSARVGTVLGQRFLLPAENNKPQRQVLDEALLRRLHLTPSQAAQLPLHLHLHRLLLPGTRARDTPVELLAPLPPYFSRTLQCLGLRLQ
UniProt Q96T23: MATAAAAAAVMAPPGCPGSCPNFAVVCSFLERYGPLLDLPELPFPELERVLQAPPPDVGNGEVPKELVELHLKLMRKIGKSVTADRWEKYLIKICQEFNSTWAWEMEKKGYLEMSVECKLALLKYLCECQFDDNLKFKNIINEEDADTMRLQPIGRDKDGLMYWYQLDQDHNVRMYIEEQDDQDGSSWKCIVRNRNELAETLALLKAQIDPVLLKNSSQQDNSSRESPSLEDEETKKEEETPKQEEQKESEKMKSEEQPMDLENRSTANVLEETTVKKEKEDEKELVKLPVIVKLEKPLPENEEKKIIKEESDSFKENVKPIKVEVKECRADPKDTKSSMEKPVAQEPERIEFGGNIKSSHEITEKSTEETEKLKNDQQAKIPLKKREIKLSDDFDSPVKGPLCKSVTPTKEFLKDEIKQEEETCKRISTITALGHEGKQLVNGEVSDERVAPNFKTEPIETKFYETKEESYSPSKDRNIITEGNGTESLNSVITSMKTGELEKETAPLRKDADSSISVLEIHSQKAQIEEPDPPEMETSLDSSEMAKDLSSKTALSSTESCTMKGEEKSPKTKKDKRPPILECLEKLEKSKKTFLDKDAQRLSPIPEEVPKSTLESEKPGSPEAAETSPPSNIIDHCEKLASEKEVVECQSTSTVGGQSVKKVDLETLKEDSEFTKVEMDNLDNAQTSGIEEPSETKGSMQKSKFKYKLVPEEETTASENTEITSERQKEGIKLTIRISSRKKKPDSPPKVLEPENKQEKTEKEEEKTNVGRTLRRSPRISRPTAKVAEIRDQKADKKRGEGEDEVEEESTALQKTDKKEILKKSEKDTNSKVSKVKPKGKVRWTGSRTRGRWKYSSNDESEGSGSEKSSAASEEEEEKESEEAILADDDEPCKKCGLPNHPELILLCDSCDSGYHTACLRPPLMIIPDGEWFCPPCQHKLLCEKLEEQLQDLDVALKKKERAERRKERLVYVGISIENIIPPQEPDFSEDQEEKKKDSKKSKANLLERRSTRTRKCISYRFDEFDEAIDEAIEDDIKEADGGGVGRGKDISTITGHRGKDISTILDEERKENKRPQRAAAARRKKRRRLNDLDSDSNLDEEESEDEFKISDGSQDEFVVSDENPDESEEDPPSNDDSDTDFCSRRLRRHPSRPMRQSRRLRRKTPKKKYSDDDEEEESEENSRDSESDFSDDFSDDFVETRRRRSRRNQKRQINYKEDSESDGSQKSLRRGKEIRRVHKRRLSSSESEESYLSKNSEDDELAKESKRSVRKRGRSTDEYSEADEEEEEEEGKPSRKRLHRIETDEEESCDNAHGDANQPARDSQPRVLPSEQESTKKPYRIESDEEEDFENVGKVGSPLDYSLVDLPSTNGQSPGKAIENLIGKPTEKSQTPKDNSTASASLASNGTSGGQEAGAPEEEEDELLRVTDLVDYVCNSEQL

Tests used:
Assay in all cases: log2 fold change, soluble protein after heating vs DMSO (PISA); higher = thermal stabilisation; K562 lysate, 10 uM; active = over 0.2 and 3.5 SD of the protein, either way, in both replicates (recomputed)
[1] = compound: NCC(=O)Nc1ccc(-n2nc(C(F)(F)F)cc2-c2ccc3c(ccc4ccccc43)c2)cc1
How it was run: (§1)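 Following dounce homogenisation of K562 pellets in PBS pH 7.4 with 1 mM MgCl2, crude extract at 1 mg/mL protein was incubated for 30 min with 10 μM compound. Aliquots were then heated for 3 min over 48°C-58°C and pooled, NP-40 was added to 0.5% at 4°C, and soluble protein was recovered as the supernatant at 21,000xg for 90 min. Channel-sum-equalised TMTpro 16plex LC-MS/MS quantified this protein. Each value, from duplicates, is a log-two fold change in thermal stability relative to solvent controls.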

vorinostat = compound: O=C(CCCCCCC(=O)Nc1ccccc1)NO [vorinostat]
How it was run: as §1

silmitasertib = compound: O=C(O)c1ccc2c(c1)nc(Nc1cccc(Cl)c1)c1ccncc12 [silmitasertib]
How it was run: as §1

[2] = compound: O=C1NC(=O)C(c2cnc3ccccn23)=C1c1cn2c3c(cc(F)cc13)CN(C(=O)N1CCCCC1)CC2
How it was run: as §1

entospletinib = compound: c1cn2cc(-c3ccc4cn[nH]c4c3)nc(Nc3ccc(N4CCOCC4)cc3)c2n1 [entospletinib]
How it was run: as §1

| Target | log2 fold change [1] | log2 fold change (vorinostat) | log2 fold change (silmitasertib) | log2 fold change [2] | log2 fold change (entospletinib) |
| --- | --- | --- | --- | --- | --- |
| RPS12 (UniProt P25398) | inactive: -0.014 | inactive: -0.053 | inactive: -0.006 | inactive: 0.017 | inactive: -0.004 |
| RPS13 (UniProt P62277) | inactive: 0.01 | inactive: 0.077 | inactive: 0.038 | inactive: 0.06 | inactive: -0.024 |
| RPS11 (UniProt P62280) | inactive: 0.012 | inactive: 0.06 | inactive: 0.028 | inactive: 0.018 | inactive: 0.002 |
| RSRC2 (UniProt Q7L4I2) | inactive: 0.017 | inactive: 0.098 | inactive: 0.011 | inactive: -0.072 | inactive: 0.001 |
| RTN4 (UniProt Q9NQC3) | inactive: 0.048 | inactive: 0.133 | inactive: -0.036 | inactive: 0.002 | inactive: 0.009 |
| RRP8 (UniProt O43159) | inactive: 0.017 | inactive: -0.066 | inactive: 0.002 | inactive: -0.009 | inactive: -0.057 |
| RPS14 (UniProt P62263) | inactive: -0.005 | inactive: 0.027 | inactive: -0.018 | inactive: 0.04 | inactive: 0.018 |
| RPS2 (UniProt P15880) | inactive: 0.003 | inactive: 0.13 | inactive: 0.01 | inactive: 0.007 | inactive: 0.014 |
| RPLP1 (UniProt P05386) | inactive: -0.037 | inactive: 0.16 | inactive: -0.054 | inactive: 0.005 | inactive: 0.029 |
| RSAD1 (UniProt Q9HA92) | inactive: 0.176 | inactive: -0.144 | inactive: -0.032 | inactive: -0.002 | inactive: -0.01 |
| RRP15 (UniProt Q9Y3B9) | inactive: 0.002 | inactive: 0.129 | inactive: -0.006 | inactive: 0.006 | inactive: 0.071 |
| RRP1 (UniProt P56182) | inactive: 0.041 | inactive: 0.04 | inactive: 0.13 | inactive: 0.007 | inactive: 0.156 |
| S100A6 (UniProt P06703) | inactive: 0.064 | inactive: 0.136 | inactive: -0.036 | inactive: -0.071 | inactive: -0.005 |
| RPP30 isoform 2 (UniProt P78346) | inactive: -0.007 | inactive: 0.029 | inactive: 0.018 | inactive: 0.038 | inactive: -0.001 |
| RTN4IP1 (UniProt Q8WWV3) | inactive: -0.1 | active: -0.338 | inactive: 0.165 | inactive: 0.054 | inactive: -0.01 |
| RPS3 (UniProt P23396) | inactive: -0.007 | inactive: 0.005 | inactive: 0.015 | inactive: 0.007 | inactive: 0.003 |
| RSBN1 (UniProt Q5VWQ0) | inactive: 0.028 | inactive: -0.097 | inactive: 0.039 | inactive: 0.009 | inactive: 0.004 |
| RPS25 (UniProt P62851) | inactive: -0.003 | inactive: 0.163 | inactive: 0.032 | inactive: 0.032 | inactive: 0 |
| RPS6KB1 (UniProt P23443) | inactive: -0.049 | active: -0.319 | inactive: 0.132 | inactive: -0.017 | inactive: -0.005 |
| RPN1 (UniProt P04843) | inactive: 0.016 | inactive: 0.08 | inactive: -0.01 | inactive: -0.001 | inactive: -0.001 |
| RSL1D1 (UniProt O76021) | inactive: -0.011 | inactive: 0.049 | inactive: 0 | inactive: 0.037 | inactive: 0.013 |
| RTL10 (UniProt Q7L3V2) | inactive: 0.044 | inactive: -0.195 | inactive: -0.058 | inactive: 0.034 | inactive: -0.073 |
| RPS24 isoform 4 (UniProt P62847) | inactive: -0.023 | inactive: 0.137 | inactive: 0.018 | inactive: 0.012 | inactive: 0.004 |
| RPS23 (UniProt P62266) | inactive: 0.023 | inactive: 0.136 | inactive: -0.004 | inactive: 0.028 | inactive: 0.05 |
| RPP25 (UniProt Q9BUL9) | inactive: -0.06 | inactive: 0.063 | inactive: -0.159 | inactive: 0.084 | inactive: -0.038 |
| RPS17 (UniProt P08708) | inactive: 0.02 | inactive: 0.12 | inactive: 0.003 | inactive: -0.009 | inactive: -0.002 |
| RPLP2 (UniProt P05387) | inactive: 0.013 | inactive: 0.157 | inactive: -0.017 | inactive: -0.024 | inactive: -0.029 |

Complete entries from above. Order of values: log2 fold change [1]	log2 fold change (vorinostat)	log2 fold change (silmitasertib)	log2 fold change [2]	log2 fold change (entospletinib)
RSRC2 (UniProt Q7L4I2) is listed as inactive: 0.017	inactive: 0.098	inactive: 0.011	inactive: -0.072	inactive: 0.001
RTL10 (UniProt Q7L3V2) is listed as inactive: 0.044	inactive: -0.195	inactive: -0.058	inactive: 0.034	inactive: -0.073
RPP25 (UniProt Q9BUL9) is listed as inactive: -0.06	inactive: 0.063	inactive: -0.159	inactive: 0.084	inactive: -0.038
RPS25 (UniProt P62851) is listed as inactive: -0.003	inactive: 0.163	inactive: 0.032	inactive: 0.032	inactive: 0

Remaining list, next part

| Target | log2 fold change [1] | log2 fold change (vorinostat) | log2 fold change (silmitasertib) | log2 fold change [2] | log2 fold change (entospletinib) |
| --- | --- | --- | --- | --- | --- |
| RRAS (UniProt P10301) | inactive: -0.044 | inactive: 0.062 | inactive: 0.004 | inactive: -0.036 | inactive: -0.013 |
| RUFY3 isoform 3 (UniProt Q7L099) | inactive: 0.01 | inactive: 0.002 | inactive: 0.016 | inactive: -0.009 | inactive: -0.009 |
| RPS8 (UniProt P62241) | inactive: 0.015 | inactive: 0.115 | inactive: 0.005 | inactive: 0.039 | inactive: 0.005 |
| RPL36AL (UniProt Q969Q0) | inactive: -0.056 | inactive: 0.124 | inactive: 0.011 | inactive: 0.131 | inactive: -0.001 |
| RPN2 (UniProt P04844) | inactive: -0.007 | inactive: 0.118 | inactive: 0.008 | inactive: -0.04 | inactive: -0.009 |
| RSU1 (UniProt Q15404) | inactive: 0.018 | inactive: 0.15 | inactive: 0 | inactive: 0.034 | inactive: 0.003 |
| RTN4 isoform 2 (UniProt Q9NQC3) | inactive: -0.01 | inactive: 0.079 | inactive: -0.184 | inactive: -0.077 | inactive: -0.004 |
| RTCB (UniProt Q9Y3I0) | inactive: 0.017 | inactive: -0.134 | inactive: 0.013 | inactive: -0.049 | inactive: 0.017 |
| RPS10 (UniProt P46783) | inactive: 0.036 | inactive: 0.071 | inactive: 0.028 | inactive: 0.013 | inactive: -0.034 |
| RPLP0P6 (UniProt Q8NHW5) | inactive: 0.009 | inactive: 0.123 | inactive: 0.004 | inactive: -0.003 | inactive: 0.017 |
| RRM2B isoform 6 (UniProt Q7LG56) | inactive: 0.011 | inactive: 0.089 | inactive: 0.009 | inactive: 0.012 | inactive: 0.006 |
| RSPRY1 (UniProt Q96DX4) | inactive: 0.038 | inactive: 0.014 | inactive: -0.047 | inactive: 0.014 | inactive: 0.025 |
| RPS3A (UniProt P61247) | inactive: -0.028 | inactive: 0.082 | inactive: 0.003 | inactive: -0.016 | inactive: 0.007 |
| RPS15A (UniProt P62244) | inactive: -0.027 | inactive: 0.015 | inactive: 0.034 | inactive: -0.028 | inactive: -0.014 |
| RRAGA (UniProt Q7L523) | inactive: -0.007 | inactive: 0.099 | inactive: 0.039 | inactive: -0.015 | inactive: 0.05 |
| RRP36 (UniProt Q96EU6) | inactive: -0.062 | inactive: 0.081 | inactive: 0.156 | inactive: -0.004 | inactive: 0.08 |
| RTL8C (UniProt A6ZKI3) | inactive: 0 | inactive: 0.032 | inactive: -0.06 | inactive: 0.026 | inactive: 0.025 |
| RYBP (UniProt Q8N488) | inactive: -0.026 | inactive: -0.004 | inactive: 0.049 | inactive: 0.031 | inactive: -0.091 |
| RPUSD3 (UniProt Q6P087) | inactive: -0.056 | inactive: -0.144 | inactive: 0.062 | inactive: 0.009 | inactive: -0.016 |
| RPL37A (UniProt P61513) | inactive: 0.028 | inactive: 0.08 | inactive: -0.021 | inactive: 0.093 | inactive: -0.005 |
| RRBP1 (UniProt Q9P2E9) | inactive: 0.003 | inactive: 0.07 | inactive: 0.015 | inactive: 0.034 | inactive: -0.002 |
| S100A11 (UniProt P31949) | inactive: -0.085 | inactive: 0.106 | inactive: -0.057 | inactive: 0.046 | inactive: -0.045 |
| RXRB isoform 3 (UniProt P28702) | inactive: 0.067 | active: -0.757 | inactive: 0.168 | inactive: 0.07 | inactive: 0.006 |
| RSF1 (UniProt Q96T23) | inactive: -0.04 | inactive: 0.119 | inactive: -0.097 | inactive: 0.022 | inactive: -0.033 |
| RPL7 (UniProt P18124) | inactive: 0.027 | inactive: 0.127 | inactive: -0.026 | inactive: 0.035 | inactive: 0.018 |
| RPS29 (UniProt P62273) | inactive: -0.105 | inactive: 0.145 | inactive: -0.03 | inactive: 0.205 | inactive: -0.085 |
